Experimental data from paper PMC10141581.
No constants are given. Whether binding was seen depends on the method and setting. In cells and extracts the contact can be indirect. Some results given as binding are weak or reduced against the parent protein; the word gives no strength.

Amino acid sequences for entries named in this document (tags omitted). Residues count along the entry.
UniProt P63104, residues 1-230: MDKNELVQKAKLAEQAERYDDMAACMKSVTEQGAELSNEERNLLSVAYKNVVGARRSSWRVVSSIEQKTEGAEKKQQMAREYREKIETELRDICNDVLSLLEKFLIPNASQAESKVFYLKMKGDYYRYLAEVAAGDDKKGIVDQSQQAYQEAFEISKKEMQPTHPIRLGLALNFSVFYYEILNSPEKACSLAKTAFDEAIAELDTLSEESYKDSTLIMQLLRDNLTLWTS

Target: 14-3-3ζ WT (human) (UniProt P63104)
Test: pull-down; the same eluates from 14-3-3ζ-Sepharose (WT, pSer58, nhpSer58) incubated with HEK293T lysate, read by Coomassie SDS-PAGE and Western blot; only the target purified

B1: Bcl2-associated agonist of cell death (BAD) (protein, UniProt Q92934 1-168)
chain: MFQIPEFEPSEQEDSSSAERGLGPSPAGDGPSGSGKHHRQAPGLLWDASHQQEQPTSSSHHGGAGAVEIRSRHSSYPAGTEDDEGMGEEPSPFRGRSRSAPPNLWAAQRYGRELRRMSDEFVDSFKKGLPRPKSAGTATQMRQSSSWTRVFQSWWDRNLGRGSSAPSQ
For B1, the binding was “binds”.
